The test has as its target ENaC (Epithelial Sodium Channel) (Mus musculus, UniProt Q61180+Q9WU38+Q9WU39). Description: Ussing chamber: inhibition of amiloride sensitive short circuit current (I_sc) in M-1 cells. The following applies: mouse kidney M-1 cells. Here is the method:
Mouse kidney M-1 cells were cultivated in DMEM containing 5% FCS and 5 μM dexamethasone for 10 to 12 days on polyester transwell filters. Filters were inserted into a teflon-coated well-plate which fit into the in-house ussing chamber system. Prior to measurement the medium of M-1 cells was replaced with Caco-2 transport buffer (Invitrogen, Germany). During measurements, the Ussing chamber temperature was kept at 37° C. Short circuit currents (I_sc) were measured in the voltage-clamp mode using an in-house built amplifier (Boehringer Ingelheim, Biberach) with the software package Lab View for data acquisition and analysis. The transepithelial electrical resistance (TEER) was determined by the application of voltage steps of ±5 mV every 5 sec. Compounds were administered at a final concentration of 3 μM or at increasing concentrations (1-3-10 μM) to the apical solution. At the end of each experiment the amiloride sensitive I_SC was measured by adding 3 μM amiloride to the apical compartment. Results are expressed as inhibition in percent of the amiloride effect or as IC50. With the example compounds given above, the following IC50 values were determined in the Ussing Chamber assay: […]

The chains behind the UniProt entries cited, without tags or fusion partners.
UniProt Q61180, whole entry: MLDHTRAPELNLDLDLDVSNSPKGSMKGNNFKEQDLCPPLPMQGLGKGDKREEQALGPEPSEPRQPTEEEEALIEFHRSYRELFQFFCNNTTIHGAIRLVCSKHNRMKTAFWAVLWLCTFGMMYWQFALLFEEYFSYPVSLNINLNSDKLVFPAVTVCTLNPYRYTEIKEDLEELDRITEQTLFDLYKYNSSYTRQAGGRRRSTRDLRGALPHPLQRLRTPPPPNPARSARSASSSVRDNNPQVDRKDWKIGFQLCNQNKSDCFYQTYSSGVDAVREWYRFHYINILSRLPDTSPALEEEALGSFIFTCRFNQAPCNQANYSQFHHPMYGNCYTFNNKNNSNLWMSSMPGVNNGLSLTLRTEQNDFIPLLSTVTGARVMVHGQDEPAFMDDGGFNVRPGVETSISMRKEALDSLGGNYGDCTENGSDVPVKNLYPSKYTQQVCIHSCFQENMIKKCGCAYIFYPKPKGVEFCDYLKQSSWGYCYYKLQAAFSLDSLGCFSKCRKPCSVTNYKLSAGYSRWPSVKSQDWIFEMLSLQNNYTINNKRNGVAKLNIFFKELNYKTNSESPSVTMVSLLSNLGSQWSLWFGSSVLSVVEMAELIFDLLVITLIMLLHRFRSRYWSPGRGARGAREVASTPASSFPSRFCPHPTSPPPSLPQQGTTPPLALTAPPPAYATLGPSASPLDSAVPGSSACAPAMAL
UniProt Q9WU38, whole entry: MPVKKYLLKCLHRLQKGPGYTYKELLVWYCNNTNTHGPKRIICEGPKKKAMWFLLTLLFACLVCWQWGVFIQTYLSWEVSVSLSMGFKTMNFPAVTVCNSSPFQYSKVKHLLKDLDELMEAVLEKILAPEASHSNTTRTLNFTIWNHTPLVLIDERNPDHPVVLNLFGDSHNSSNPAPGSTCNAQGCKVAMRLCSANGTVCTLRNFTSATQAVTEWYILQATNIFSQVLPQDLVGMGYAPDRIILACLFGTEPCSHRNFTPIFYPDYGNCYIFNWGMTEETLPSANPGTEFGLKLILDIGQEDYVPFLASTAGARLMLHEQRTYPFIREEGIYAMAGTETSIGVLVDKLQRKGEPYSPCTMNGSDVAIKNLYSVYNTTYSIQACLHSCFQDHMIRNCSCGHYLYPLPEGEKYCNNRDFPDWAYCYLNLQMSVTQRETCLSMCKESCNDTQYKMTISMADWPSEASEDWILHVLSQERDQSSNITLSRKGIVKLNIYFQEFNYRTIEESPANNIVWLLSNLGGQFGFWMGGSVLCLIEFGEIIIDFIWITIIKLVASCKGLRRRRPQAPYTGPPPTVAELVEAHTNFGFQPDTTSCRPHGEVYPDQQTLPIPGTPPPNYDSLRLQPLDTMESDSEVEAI
UniProt Q9WU39, whole entry: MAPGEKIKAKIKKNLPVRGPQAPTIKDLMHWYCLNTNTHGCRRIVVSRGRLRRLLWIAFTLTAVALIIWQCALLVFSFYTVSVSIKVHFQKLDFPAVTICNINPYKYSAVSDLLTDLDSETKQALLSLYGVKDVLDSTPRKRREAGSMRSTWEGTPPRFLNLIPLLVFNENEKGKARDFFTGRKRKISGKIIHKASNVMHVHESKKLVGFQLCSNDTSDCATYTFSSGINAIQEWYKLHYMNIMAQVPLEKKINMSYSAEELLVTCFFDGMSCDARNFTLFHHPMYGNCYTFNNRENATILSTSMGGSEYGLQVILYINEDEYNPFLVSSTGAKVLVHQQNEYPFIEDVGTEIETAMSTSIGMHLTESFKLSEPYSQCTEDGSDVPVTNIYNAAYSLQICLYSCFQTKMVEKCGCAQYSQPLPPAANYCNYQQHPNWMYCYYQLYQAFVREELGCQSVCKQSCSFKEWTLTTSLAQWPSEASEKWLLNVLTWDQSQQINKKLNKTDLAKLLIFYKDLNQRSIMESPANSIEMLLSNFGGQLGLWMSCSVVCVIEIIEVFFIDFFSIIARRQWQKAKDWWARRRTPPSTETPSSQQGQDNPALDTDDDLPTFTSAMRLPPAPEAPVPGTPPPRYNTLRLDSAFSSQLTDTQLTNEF

Structures were worked out from names or drawings and are uncertain.

Take `CN(C)CCCN(CCCN(C)C)C(=O)c1ccc(CN2CCC(NC(N)=NC(=O)c3nc(Cl)c(N)nc3N)CC2)cc1`: the half-inhibitory concentration (IC50) (as a rule, the concentration at which inhibition is half-maximal) was 15 nM. This counts as double-digit nanomolar.

The values are drawn from patent US8859559B2, “Substituted pyrazines and their use in the treatment of disease” (Boehringer Ingelheim International GmbH, priority 2011, dated 2014).
